# Test results reported in the supplement of paper PMC7666118.
# The chains behind the UniProt entries cited, without tags or fusion partners. Where a name states a change or a piece, a line headed by the entry shows the natural chain unless it says otherwise.
# UniProt Q9BRT8: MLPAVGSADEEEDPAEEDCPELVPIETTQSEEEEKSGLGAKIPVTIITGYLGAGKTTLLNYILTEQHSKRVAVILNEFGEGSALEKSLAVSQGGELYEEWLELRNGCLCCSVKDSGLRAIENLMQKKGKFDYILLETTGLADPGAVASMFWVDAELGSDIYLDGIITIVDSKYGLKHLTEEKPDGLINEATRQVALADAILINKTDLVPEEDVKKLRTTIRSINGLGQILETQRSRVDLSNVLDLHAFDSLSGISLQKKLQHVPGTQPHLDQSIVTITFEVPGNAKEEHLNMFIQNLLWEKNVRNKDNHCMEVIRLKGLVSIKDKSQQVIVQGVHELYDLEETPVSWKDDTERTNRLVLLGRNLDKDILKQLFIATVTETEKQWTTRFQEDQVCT
# UniProt Q9HB71, whole entry: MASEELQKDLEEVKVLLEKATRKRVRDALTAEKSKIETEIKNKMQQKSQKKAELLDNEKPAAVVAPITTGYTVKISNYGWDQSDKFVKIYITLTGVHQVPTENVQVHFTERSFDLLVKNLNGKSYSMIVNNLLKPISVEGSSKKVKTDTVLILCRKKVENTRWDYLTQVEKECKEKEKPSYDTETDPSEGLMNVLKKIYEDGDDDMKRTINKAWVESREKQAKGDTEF
# UniProt Q0VDI3: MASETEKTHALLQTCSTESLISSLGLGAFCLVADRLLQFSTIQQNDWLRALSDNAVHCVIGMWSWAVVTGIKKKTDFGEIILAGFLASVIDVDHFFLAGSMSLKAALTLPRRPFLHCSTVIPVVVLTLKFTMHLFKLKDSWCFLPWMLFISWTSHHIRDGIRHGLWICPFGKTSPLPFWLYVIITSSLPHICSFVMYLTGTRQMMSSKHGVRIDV
# UniProt P42575: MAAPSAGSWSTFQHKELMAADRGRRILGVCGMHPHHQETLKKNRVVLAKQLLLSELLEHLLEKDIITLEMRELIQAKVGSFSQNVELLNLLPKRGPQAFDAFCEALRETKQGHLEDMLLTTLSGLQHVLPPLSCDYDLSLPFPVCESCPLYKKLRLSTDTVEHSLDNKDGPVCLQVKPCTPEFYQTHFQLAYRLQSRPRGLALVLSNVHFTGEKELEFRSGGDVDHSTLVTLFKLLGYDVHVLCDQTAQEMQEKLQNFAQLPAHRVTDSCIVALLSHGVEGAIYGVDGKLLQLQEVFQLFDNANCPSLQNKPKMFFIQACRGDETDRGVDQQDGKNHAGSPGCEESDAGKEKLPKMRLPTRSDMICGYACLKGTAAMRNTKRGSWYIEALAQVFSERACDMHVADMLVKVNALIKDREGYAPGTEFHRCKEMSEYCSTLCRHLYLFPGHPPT
# UniProt Q8N0T1: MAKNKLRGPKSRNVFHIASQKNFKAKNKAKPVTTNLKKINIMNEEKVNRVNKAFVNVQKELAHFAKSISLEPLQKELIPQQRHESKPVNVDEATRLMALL
# UniProt Q9NXE8: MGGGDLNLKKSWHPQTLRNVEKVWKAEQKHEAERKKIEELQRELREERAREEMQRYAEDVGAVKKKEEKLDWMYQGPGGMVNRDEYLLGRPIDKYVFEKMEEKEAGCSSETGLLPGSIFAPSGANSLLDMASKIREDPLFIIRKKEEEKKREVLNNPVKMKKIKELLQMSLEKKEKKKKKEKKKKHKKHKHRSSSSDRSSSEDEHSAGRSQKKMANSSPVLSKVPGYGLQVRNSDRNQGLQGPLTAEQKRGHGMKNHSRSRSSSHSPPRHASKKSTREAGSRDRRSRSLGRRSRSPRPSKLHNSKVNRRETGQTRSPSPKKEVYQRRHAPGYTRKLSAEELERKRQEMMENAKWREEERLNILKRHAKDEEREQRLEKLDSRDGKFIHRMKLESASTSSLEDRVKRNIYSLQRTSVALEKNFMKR
# UniProt P04040: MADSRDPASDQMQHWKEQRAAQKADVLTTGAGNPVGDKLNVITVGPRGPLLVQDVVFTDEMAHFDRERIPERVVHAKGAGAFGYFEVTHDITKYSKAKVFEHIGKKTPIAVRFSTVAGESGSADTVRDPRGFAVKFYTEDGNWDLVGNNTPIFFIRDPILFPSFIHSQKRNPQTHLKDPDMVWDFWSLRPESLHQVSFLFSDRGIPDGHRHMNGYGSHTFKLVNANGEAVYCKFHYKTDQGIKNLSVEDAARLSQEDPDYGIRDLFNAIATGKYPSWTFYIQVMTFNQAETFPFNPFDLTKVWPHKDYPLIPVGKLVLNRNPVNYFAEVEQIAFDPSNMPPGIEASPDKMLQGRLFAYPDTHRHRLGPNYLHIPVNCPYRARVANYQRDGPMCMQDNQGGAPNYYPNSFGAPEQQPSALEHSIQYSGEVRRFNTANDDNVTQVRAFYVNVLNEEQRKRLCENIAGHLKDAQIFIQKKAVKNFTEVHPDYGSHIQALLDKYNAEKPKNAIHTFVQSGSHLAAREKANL
# UniProt Q9Y5K6, whole entry: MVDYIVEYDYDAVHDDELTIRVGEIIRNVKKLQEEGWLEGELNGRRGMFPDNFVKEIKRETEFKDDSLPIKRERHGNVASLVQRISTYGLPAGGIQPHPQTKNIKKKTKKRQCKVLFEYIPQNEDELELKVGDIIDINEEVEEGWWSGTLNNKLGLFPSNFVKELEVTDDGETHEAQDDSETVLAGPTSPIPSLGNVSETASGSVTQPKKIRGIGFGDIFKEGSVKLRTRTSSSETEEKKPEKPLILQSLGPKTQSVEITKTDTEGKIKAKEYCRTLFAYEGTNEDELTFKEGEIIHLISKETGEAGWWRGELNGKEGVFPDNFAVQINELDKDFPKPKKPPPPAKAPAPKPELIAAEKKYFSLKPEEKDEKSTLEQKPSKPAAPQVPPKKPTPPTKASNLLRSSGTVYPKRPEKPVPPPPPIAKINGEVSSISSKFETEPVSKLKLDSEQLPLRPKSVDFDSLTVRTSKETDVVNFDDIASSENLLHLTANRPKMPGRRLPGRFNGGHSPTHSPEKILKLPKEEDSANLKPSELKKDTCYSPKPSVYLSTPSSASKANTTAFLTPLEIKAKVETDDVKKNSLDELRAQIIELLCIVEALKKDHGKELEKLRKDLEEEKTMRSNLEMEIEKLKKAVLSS
# UniProt Q9Y530: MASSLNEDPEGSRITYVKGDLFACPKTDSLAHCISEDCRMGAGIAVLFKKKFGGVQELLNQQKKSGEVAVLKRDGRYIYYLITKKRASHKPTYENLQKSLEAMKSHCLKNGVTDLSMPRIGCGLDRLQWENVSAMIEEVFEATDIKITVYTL
# UniProt Q8NI60: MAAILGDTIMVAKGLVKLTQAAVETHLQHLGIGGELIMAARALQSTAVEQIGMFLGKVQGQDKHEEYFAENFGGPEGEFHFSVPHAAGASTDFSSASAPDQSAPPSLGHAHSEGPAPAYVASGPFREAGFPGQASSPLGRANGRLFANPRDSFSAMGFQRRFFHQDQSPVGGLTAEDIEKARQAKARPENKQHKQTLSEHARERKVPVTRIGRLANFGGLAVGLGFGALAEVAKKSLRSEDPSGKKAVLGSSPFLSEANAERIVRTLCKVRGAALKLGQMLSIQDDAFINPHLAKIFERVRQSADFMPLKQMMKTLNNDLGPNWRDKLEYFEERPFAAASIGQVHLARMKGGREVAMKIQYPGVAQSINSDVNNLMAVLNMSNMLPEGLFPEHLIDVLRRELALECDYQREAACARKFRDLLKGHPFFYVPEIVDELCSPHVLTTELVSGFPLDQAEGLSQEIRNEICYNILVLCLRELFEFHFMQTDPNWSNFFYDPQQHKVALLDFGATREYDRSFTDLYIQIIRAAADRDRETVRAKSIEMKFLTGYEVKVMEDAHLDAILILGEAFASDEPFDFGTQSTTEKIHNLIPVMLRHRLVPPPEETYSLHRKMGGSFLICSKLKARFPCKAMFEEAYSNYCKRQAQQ
# UniProt P48643, whole entry: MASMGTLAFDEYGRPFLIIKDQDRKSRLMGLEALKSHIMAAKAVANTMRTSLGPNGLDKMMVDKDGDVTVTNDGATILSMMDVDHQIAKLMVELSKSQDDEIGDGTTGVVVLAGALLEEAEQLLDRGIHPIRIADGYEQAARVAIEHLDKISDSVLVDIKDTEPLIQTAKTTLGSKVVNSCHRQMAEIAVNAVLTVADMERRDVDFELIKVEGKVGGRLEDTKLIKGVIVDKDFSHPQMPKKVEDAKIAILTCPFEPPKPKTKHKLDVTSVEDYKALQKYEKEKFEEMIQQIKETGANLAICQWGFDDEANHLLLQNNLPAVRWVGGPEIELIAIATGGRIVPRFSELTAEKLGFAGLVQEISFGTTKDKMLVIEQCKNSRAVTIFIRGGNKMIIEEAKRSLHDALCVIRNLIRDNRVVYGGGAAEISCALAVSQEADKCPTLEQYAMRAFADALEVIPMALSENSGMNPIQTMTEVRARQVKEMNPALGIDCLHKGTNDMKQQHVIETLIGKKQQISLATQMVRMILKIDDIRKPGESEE
# UniProt Q8IYB1: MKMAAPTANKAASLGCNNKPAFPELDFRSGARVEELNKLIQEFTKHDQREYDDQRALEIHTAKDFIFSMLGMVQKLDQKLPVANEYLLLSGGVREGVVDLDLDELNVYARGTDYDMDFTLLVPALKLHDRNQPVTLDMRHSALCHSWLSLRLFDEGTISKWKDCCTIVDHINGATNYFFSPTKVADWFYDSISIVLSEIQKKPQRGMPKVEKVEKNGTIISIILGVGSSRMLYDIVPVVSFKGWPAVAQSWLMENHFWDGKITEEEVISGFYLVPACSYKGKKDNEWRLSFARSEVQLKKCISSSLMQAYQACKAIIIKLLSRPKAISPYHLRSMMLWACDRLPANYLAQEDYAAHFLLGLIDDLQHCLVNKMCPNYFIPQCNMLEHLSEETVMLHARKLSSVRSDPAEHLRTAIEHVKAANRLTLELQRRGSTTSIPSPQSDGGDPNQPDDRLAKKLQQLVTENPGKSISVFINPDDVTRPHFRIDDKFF
# UniProt Q8ND76: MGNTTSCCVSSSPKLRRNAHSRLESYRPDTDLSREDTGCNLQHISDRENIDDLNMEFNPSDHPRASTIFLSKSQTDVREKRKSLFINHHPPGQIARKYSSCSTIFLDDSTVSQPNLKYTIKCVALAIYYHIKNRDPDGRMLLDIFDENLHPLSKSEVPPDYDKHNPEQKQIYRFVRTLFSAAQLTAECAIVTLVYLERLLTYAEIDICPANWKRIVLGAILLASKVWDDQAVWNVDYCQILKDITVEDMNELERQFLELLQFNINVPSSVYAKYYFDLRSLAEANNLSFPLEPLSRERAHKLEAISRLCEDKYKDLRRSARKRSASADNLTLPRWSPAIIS
# UniProt Q8WU43: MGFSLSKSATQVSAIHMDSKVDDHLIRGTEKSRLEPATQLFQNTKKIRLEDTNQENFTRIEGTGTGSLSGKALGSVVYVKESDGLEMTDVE
# UniProt Q86WR0: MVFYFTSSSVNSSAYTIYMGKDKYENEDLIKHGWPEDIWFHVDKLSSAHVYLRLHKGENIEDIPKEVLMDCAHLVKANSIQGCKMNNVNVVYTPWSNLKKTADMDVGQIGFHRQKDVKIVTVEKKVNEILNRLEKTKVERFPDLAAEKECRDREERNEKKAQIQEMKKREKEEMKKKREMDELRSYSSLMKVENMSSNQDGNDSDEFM
# UniProt P40121: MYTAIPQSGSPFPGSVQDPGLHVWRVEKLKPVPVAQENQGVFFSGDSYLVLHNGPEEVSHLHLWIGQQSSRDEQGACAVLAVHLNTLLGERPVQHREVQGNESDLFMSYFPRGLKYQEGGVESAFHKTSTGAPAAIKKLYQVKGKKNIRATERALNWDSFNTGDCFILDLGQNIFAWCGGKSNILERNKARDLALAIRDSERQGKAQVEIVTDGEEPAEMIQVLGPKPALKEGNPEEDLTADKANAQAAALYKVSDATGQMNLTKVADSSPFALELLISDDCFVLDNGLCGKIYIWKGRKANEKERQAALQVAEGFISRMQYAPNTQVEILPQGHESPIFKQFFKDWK
# UniProt P17655: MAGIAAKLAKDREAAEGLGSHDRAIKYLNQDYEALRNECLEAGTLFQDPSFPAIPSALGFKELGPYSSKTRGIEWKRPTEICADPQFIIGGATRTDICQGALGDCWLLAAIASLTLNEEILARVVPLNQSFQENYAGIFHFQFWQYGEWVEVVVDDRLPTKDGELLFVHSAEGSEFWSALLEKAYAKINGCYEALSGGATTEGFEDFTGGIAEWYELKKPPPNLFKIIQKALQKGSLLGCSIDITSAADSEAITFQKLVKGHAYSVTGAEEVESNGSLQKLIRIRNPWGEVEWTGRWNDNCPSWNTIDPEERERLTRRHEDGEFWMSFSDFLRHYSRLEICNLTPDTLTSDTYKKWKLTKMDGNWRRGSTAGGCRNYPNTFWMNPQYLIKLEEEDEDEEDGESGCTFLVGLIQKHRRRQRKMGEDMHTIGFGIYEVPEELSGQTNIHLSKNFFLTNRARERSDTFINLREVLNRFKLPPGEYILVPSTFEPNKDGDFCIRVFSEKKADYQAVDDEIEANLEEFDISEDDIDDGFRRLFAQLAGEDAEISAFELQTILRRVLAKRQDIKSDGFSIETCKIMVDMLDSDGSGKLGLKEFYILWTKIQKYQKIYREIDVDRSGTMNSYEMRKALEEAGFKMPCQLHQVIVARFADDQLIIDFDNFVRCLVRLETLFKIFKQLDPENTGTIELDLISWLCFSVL
# Some of the results follow.
# Compound: COc1ccc(Cn2ccc3cc(C)c(C(=O)NO)cc32)cc1
# Assay: dose-dependent thermal stabilisation call (2D-TPP, DLPTP, 10% FDR) (binary (1 = stabilised)); higher = stabilised by the compound
# Settings: system: HL-60 intact cells; concentration range 0.04-10 µM
# Method: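 2D thermal proteome profiling in intact HL-60 cells treated with BRD-3811 (0, 0.04, 0.29, 2, 10 uM) for 90 min at 37 C, then heated 3 min at one of 12 temperatures (42-63.9 C). Soluble protein was quantified by TMT10 MS. The value is the DLPTP call of the paper: dose-dependent thermal stabilisation over all temperatures at 10% FDR (F-test of a dose-response against a flat model); one experiment, one call per tested protein.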
row,Target,dose-dependent thermal stabilisation call
1,C1QBP (UniProt Q07021),inactive: 0
2,CCDC109B (UniProt Q9NWR8),inactive: 0
3,CBWD1 (UniProt Q9BRT8),inactive: 0
4,CACYBP (UniProt Q9HB71),inactive: 0
5,C4B (UniProt P0C0L5),inactive: 0
6,C5ORF28 (UniProt Q0VDI3),inactive: 0
7,C3 (UniProt P01024),inactive: 0
8,CASP2 (UniProt P42575),inactive: 0
9,C8ORF59 (UniProt Q8N0T1),inactive: 0
10,CCDC49 (UniProt Q9NXE8),inactive: 0
11,CAT (UniProt P04040),inactive: 0
12,CD2AP (UniProt Q9Y5K6),inactive: 0
13,C8ORF55 (UniProt Q8WUY1),inactive: 0
14,CD37 (UniProt P11049),inactive: 0
15,C6ORF130 (UniProt Q9Y530),inactive: 0
16,CABC1 (UniProt Q8NI60),inactive: 0
17,CCT5 (UniProt P48643),inactive: 0
18,CD320 (UniProt Q9NPF0),inactive: 0

row,Target,dose-dependent thermal stabilisation call
1,C6ORF167 (UniProt Q6ZRQ5),inactive: 0
2,CACNA2D1 (UniProt P54289),inactive: 0
3,C3ORF59 (UniProt Q8IYB1),inactive: 0
4,C8ORF41 (UniProt Q6NXR4),inactive: 0
5,CCNY (UniProt Q8ND76),inactive: 0
6,CARD8 (UniProt Q9Y2G2),inactive: 0
7,C9ORF126 (UniProt Q8N9R8),inactive: 0
8,C7ORF23 (UniProt Q9BU79),inactive: 0
9,CAPNS1 (UniProt P04632),inactive: 0
10,C1ORF9 (UniProt Q9UBS9),inactive: 0
11,CCDC47 (UniProt Q96A33),inactive: 0
12,C2ORF15 (UniProt Q8WU43),inactive: 0
13,C7ORF50 (UniProt Q9BRJ6),inactive: 0
14,CCDC25 (UniProt Q86WR0),inactive: 0
15,CAPZA1 (UniProt P52907),inactive: 0
16,CAPG (UniProt P40121),inactive: 0
17,C20ORF72 (UniProt Q9BQP7),inactive: 0
18,CAPN2 (UniProt P17655),inactive: 0

# Quoted at random: three records from the list.
row,Target,dose-dependent thermal stabilisation call
2,CACNA2D1 (UniProt P54289),inactive: 0
16,CAPG (UniProt P40121),inactive: 0
6,CARD8 (UniProt Q9Y2G2),inactive: 0
